Some of these results come from one statement about several compounds together. At least one compound was matched to its structure with a doubt left.
Assays:
[1] = Uptake of R-baclofen following intracolonic administration in rats; type: in vivo; settings: 10 mg baclofen equivalents per kg
[2] = Uptake of R-baclofen following intracolonic administration in cynomolgus monkeys; type: in vivo; settings: 5 mg baclofen-eq/kg

CCOC(C)(OCC)C(=O)OCOC(=O)NC[C@H](CC(=O)[O-])c1ccc(Cl)cc1.[Na+] [(51), Sodium 4-[(2,2-Diethoxypropanoyloxymethoxy)carbonylamino]-(3R)-(4-chlorophenyl)-butanoate]
> 2 fold: area under the baclofen plasma concentration vs. time curve (AUC) relative to colonic administration of R-baclofen itself [1] | maximum plasma concentration of R-baclofen (Cmax) relative to colonic administration of R-baclofen itself [1] | area under the baclofen plasma concentration vs. time curve (AUC) relative to colonic administration of R-baclofen itself [2] | maximum plasma concentration of baclofen (Cmax) relative to colonic administration of R-baclofen itself [2]

O=C([O-])C[C@@H](CNC(=O)OCOC(=O)c1ccccc1)c1ccc(Cl)cc1.[Na+] [(12), Sodium 4-[(Benzoyloxymethoxy)carbonylamino]-(3R)-(4-chlorophenyl)-butanoate]
> 2 fold: area under the baclofen plasma concentration vs. time curve (AUC) relative to colonic administration of R-baclofen itself [1] | maximum plasma concentration of R-baclofen (Cmax) relative to colonic administration of R-baclofen itself [1] | area under the baclofen plasma concentration vs. time curve (AUC) relative to colonic administration of R-baclofen itself [2] | maximum plasma concentration of baclofen (Cmax) relative to colonic administration of R-baclofen itself [2]

CC(=O)OC(OC(=O)NC[C@H](CC(=O)OCc1ccccc1)c1ccc(Cl)cc1)C(C)C (stereo partly drawn) [(22), Benzyl 4-[(1-Acetoxyisobutoxy)carbonylamino]-(3R)-(4-chlorophenyl)-butanoate]
> 2 fold: area under the baclofen plasma concentration vs. time curve (AUC) relative to colonic administration of R-baclofen itself [2] | maximum plasma concentration of baclofen (Cmax) relative to colonic administration of R-baclofen itself [2]

CCCC(=O)OC(OC(=O)NC[C@H](CC(=O)[O-])c1ccc(Cl)cc1)C(C)C.[Na+] (stereo partly drawn) [(27), Sodium 4-[(1-Butanoyloxyisobutoxy)carbonylamino]-(3R)-(4-chlorophenyl)-butanoate]
> 2 fold: area under the baclofen plasma concentration vs. time curve (AUC) relative to colonic administration of R-baclofen itself [1] | maximum plasma concentration of R-baclofen (Cmax) relative to colonic administration of R-baclofen itself [1]
